Measured values reported in PubChem BioAssay AID758 (NMMLSC, 2007).
Out of some 190,000 compounds screened, about 110 (0.058%) were called active. This list was built around the results that the source calls inconclusive (neither active nor inactive); the mix of calls is not that of the screen.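 How the source made its calls: active means fluorescent GTP binding to Rab7 beads changed by at least 20 points from the 100% baseline, either direction, mostly lower; inconclusive means compound itself probably fluorescent, or too few beads counted; inactive means the rest.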

The molecules below were run on Rab7 GTPase wild type (dog), Bodipy-FL-GTP binding (assay: modulators of GTP binding to Rab7, primary screen, biochemical, wildtype, multiplex bead flow cytometry (AID 758;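 further: median green fluorescence of bound Bodipy-FL-GTP per Rab7 bead population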)). Conditions: GST-Rab7 beads, fluorescent GTP binding, at 10 µM, actives lie on both sides, untreated = 100%, excess cold GTP = 0%.
With CCN1CCN(C(c2cc(OC)c(OC)c(OC)c2)c2nnnn2C(C)C)CC1 (stereo unspecified) the GTP binding activity (percent of control) was inconclusive: 102%. In the case of CCOc1ccc(-c2nnc(-c3cccs3)o2)cc1OCC, the GTP binding activity (percent of control) is reported as inconclusive: 91%. For CCOC(=O)N1CCN(C(c2cccc(OC)c2)c2sc3nc(C)nn3c2O)CC1 (stereo unspecified), the GTP binding activity (percent of control) was inconclusive: 103%. With CCOC(=O)C(CC)(CCC(=O)O)c1csc(N)n1 (stereo unspecified) the GTP binding activity (percent of control) was inconclusive: 106%. With Cc1ccc(S(=O)(=O)N(CC(=O)N(C)C)c2cccc([N+](=O)[O-])c2)cc1 the GTP binding activity (percent of control) was inconclusive: 94%. For Cc1noc(NS(=O)(=O)c2ccc(NC(=O)CSc3n[nH]c(-c4ccccc4)n3)cc2)c1C, the GTP binding activity (percent of control) was inconclusive: 88%. With C=CCOc1ccc(CN(C)CC(=O)Nc2ccc3c(c2)CCC3)cc1 the GTP binding activity (percent of control) was inconclusive: 91%. In the case of CCC/C(O)=C1\C(=O)CCCC1=NCCc1c(C)[nH]c2ccc(OC)cc12, the GTP binding activity (percent of control) is reported as inactive: 96%. With CC(Oc1ccc(F)cc1)C(O)CCN(C)C (stereo unspecified) the GTP binding activity (percent of control) was inactive: 100%. In the case of Cc1cc(Br)ccc1OCCn1ccnc1, the GTP binding activity (percent of control) is reported as inactive: 103%. For Oc1c(Cl)cc(Cl)cc1C=Nc1ccccc1N1CCCC1, the GTP binding activity (percent of control) was inconclusive: 96%. CSc1c(CC(=O)Nc2ccc(F)cc2)n(Cc2ccccc2)c2ccccc12 was tested, and the GTP binding activity (percent of control) was inactive: 101%. CC(=O)N1CCCN(Cc2cn(-c3cc(C)ccc3C)nc2-c2ccccc2)CC1 was tested, and the GTP binding activity (percent of control) was inactive: 100%. For CC(C)(C)c1ccccc1NC(=O)Cn1c(=O)cnc2ccccc21, the GTP binding activity (percent of control) was inconclusive: 101%. In the case of CCCN(Cc1ccccc1)C(=S)NC(=O)c1ccccc1[N+](=O)[O-], the GTP binding activity (percent of control) is reported as inactive: 96%. For CN(C)C(=O)N1CCNCC1, the GTP binding activity (percent of control) was inactive: 106%. With COCCNc1nnnc2c1sc1nc(N3CCOCC3)c3c(c12)CCCC3 the GTP binding activity (percent of control) was inactive: 95%. For CCOc1ccc(/C=C2\SC(N3CCc4ccccc4C3)=NC2=O)cc1, the GTP binding activity (percent of control) was inconclusive: 83%. In the case of CC(C)(C)c1ccc2c(c1)C(=O)c1ccccc1C2=O, the GTP binding activity (percent of control) is reported as inconclusive: 96%. In the case of COCc1cc(C)nc(OCC(=O)N/N=C/c2ccc(-c3cc([N+](=O)[O-])ccc3Cl)o2)c1C#N, the GTP binding activity (percent of control) is reported as inactive: 108%. In the case of CCn1c(SCc2ccc(C(=O)Nc3nccs3)cc2)nnc1-c1ccc(N)cc1, the GTP binding activity (percent of control) is reported as inconclusive: 91%. COc1ccc(C(=O)N2CCCCC2)cc1S(=O)(=O)Nc1ccccc1 was tested, and the GTP binding activity (percent of control) was inconclusive: 96%. For C/C(=N\OCC(=O)NC12CC3CC(CC(C3)C1)C2)c1cc2ccccc2o1, the GTP binding activity (percent of control) was inactive: 98%. For CCCN1C2CCCC1CC(NC(=S)Nc1cc(C)cc(C)c1)C2 (stereo unspecified), the GTP binding activity (percent of control) was inactive: 103%. COc1ccccc1CNC(=O)C(=O)NCC(c1ccco1)N1CCOCC1 (stereo unspecified) was tested, and the GTP binding activity (percent of control) was inconclusive: 128%. For CCOC(=O)C1=NN(c2ccc(C)cc2)CC1C(=O)OC (stereo unspecified), the GTP binding activity (percent of control) was inactive: 95%. With COCCn1nnnc1CN(Cc1ccco1)Cc1cc2cc3c(cc2[nH]c1=O)OCO3 the GTP binding activity (percent of control) was inconclusive: 101%. With CCC(C(=O)Nc1ccccc1C(=O)N1CCOCC1)N1C(=O)c2ccccc2C1=O (stereo unspecified) the GTP binding activity (percent of control) was inconclusive: 91%. CN(C)c1ccc(-c2nn3c(-c4ccc(Cl)cc4Cl)nnc3s2)cc1 was tested, and the GTP binding activity (percent of control) was inconclusive: 102%. With COc1ccc(/C=N/NC(=O)c2cccc(O)c2)cc1Cn1nc(C)c([N+](=O)[O-])c1C the GTP binding activity (percent of control) was inconclusive: 97%. For COCc1nnc(NC(=O)CSc2ccc(C)cc2)s1, the GTP binding activity (percent of control) was inconclusive: 107%. Cc1ccc(-n2[nH]c(C)c(C=Nc3ccc(S(=O)(=O)Nc4nccs4)cc3)c2=O)cc1C was tested, and the GTP binding activity (percent of control) was inconclusive: 88%. N/C(CSc1nc(-c2ccccc2)c(-c2ccccc2)o1)=N\O was tested, and the GTP binding activity (percent of control) was inconclusive: 88%. For Cc1c(NC(=O)c2ccc(Br)s2)c(=O)n(-c2ccccc2)n1C, the GTP binding activity (percent of control) was inactive: 100%. With O=C(Nc1cnn(Cc2c(Cl)cccc2Cl)c1)c1ccc([N+](=O)[O-])cc1 the GTP binding activity (percent of control) was inconclusive: 95%. In the case of OCC1(Cc2ccc(Cl)cc2)CCN(CCCc2ccccc2)CC1, the GTP binding activity (percent of control) is reported as inconclusive: 99%. Cc1cccc(NS(=O)(=O)c2ccc(C)c(C(N)=O)c2)c1 was tested, and the GTP binding activity (percent of control) was inactive: 102%. In the case of N#Cc1cc(C#N)c(N2CCN(c3cccc(Cl)n3)CC2)nc1N, the GTP binding activity (percent of control) is reported as inconclusive: 83%. In the case of COc1ccc(N=c2oc3c(OC)cccc3cc2C(=O)NCc2ccco2)cc1OC, the GTP binding activity (percent of control) is reported as inconclusive: 96%. For CCCCn1cnc2c(sc3nc4c(cc32)CSC(C)(C)C4)c1=O, the GTP binding activity (percent of control) was inconclusive: 98%. CCCOC(=O)c1ccc(NC(=O)Oc2ccccc2)cc1 was tested, and the GTP binding activity (percent of control) was inconclusive: 94%. For COc1ccc(N/N=C(\C#N)C(=N)N2CCOCC2)cc1, the GTP binding activity (percent of control) was inconclusive: 91%. For COc1ccc(N2CCN(C(=O)Cn3cncn3)CC2)cc1, the GTP binding activity (percent of control) was inconclusive: 90%. For O=C(c1c[nH]c2ccccc12)N1CCOCC1, the GTP binding activity (percent of control) was inconclusive: 97%. In the case of CC1=CC(=C(C#N)C#N)c2ccccc2N1C, the GTP binding activity (percent of control) is reported as inconclusive: 91%. O=C1C(Cl)=C(N2CCN(Cc3ccccc3)CC2)C(=O)N1Cc1ccccc1 was tested, and the GTP binding activity (percent of control) was inconclusive: 94%. In the case of Cc1ccccc1OCCn1cc(C(=O)O)c2ccccc21, the GTP binding activity (percent of control) is reported as active: 122% [activator]. With COc1ccc(N(CC(=O)Nc2cccc(C)c2C)S(=O)(=O)c2c(C)n[nH]c2C)cc1 the GTP binding activity (percent of control) was inactive: 87%. For COc1ccc2nc3ccccc3nc2c1NC(=O)c1ccc(Cl)cc1Cl, the GTP binding activity (percent of control) was inactive: 105%. In the case of N#Cc1c(N)nc2c(c1-c1ccncc1)CCCC2, the GTP binding activity (percent of control) is reported as inconclusive: 104%. With COc1cccc(/C=N/Nc2nn3cnnc3c3ccccc23)c1O the GTP binding activity (percent of control) was active: 77%. CCOc1ccc(NC(=S)N(CCN2CCOCC2)Cc2cc3cc4c(cc3[nH]c2=O)OCO4)cc1 was tested, and the GTP binding activity (percent of control) was inconclusive: 97%. O=C(CSc1nnc(Cc2ccccc2)o1)c1ccccc1 was tested, and the GTP binding activity (percent of control) was inconclusive: 91%. C#CC[N+]1(CC#Cc2ccc(C)cc2)CCCCC1 was tested, and the GTP binding activity (percent of control) was inactive: 99%. COc1ccc(CCNC(=O)c2ccc(CSc3ccccc3)o2)cc1 was tested, and the GTP binding activity (percent of control) was inconclusive: 93%. CC/C(=N\Nc1ccccc1[N+](=O)[O-])c1ccc(O)cc1 was tested, and the GTP binding activity (percent of control) was inconclusive: 95%. For O=C(Nc1ccc(N2CCN(C(=O)c3cccs3)CC2)cc1)c1cccnc1Cl, the GTP binding activity (percent of control) was inconclusive: 94%. In the case of COC(=O)C1=C(C)NC(=O)/C1=C\c1cc(C)n(-c2c(C)cccc2C)c1C, the GTP binding activity (percent of control) is reported as inactive: 112%. In the case of COc1ccc(OC)c(NC(=S)N2CCN(c3ccccn3)CC2)c1, the GTP binding activity (percent of control) is reported as inconclusive: 85%. With CCOC(=O)CN1C=C(c2ccc3ccccc3n2)C(C[N+](=O)[O-])c2ccccc21 (stereo unspecified) the GTP binding activity (percent of control) was inconclusive: 108%. COC(=O)c1sccc1NC(=S)N1C(C)CCCC1C (stereo unspecified) was tested, and the GTP binding activity (percent of control) was inactive: 96%. In the case of CCCCNC(=O)CSc1nnc(-c2c[nH]c3ccccc23)n1CC1CCCO1 (stereo unspecified), the GTP binding activity (percent of control) is reported as inactive: 102%. With CCC(Sc1nc(=O)cc(N)n1CCc1ccccc1)C(=O)Nc1cc(C)on1 (stereo unspecified) the GTP binding activity (percent of control) was inconclusive: 102%. CCOC(=O)c1sc(NCc2ccco2)c(-c2nc3ccccc3s2)c1N was tested, and the GTP binding activity (percent of control) was inconclusive: 113%. In the case of CN(C)S(=O)(=O)c1cccc(-c2nnc(SCCNCCO)n2-c2ccc(F)cc2)c1, the GTP binding activity (percent of control) is reported as inactive: 92%. For Cc1cc(C(C)(C)C)oc1C(=O)NCCCNC(=O)c1oc(C(C)(C)C)cc1C, the GTP binding activity (percent of control) was inconclusive: 93%. O=c1[nH]c2cc3c(cc2cc1CN(Cc1cccnc1)C(=S)NCc1ccco1)OCCO3 was tested, and the GTP binding activity (percent of control) was inconclusive: 95%. O=C(N/N=C/c1cccc(O)c1)c1ccc(COc2ccc3c(c2)CCC3)o1 was tested, and the GTP binding activity (percent of control) was inactive: 100%. CC(=O)N1c2ccccc2C(=O)OC1c1cccnc1 (stereo unspecified) was tested, and the GTP binding activity (percent of control) was inconclusive: 96%. With O=C(O)CCCCCNS(=O)(=O)c1cccc2c1C(=O)c1ccccc1C2=O the GTP binding activity (percent of control) was inconclusive: 85%. CCOC(=O)N1CCN(C(=O)/C(=C/c2cccc3ccccc23)NC(=O)c2ccc(OC)cc2)CC1 was tested, and the GTP binding activity (percent of control) was inconclusive: 102%. O=C(COc1ccc(F)cc1)N1CCC(c2ccccc2)C1 (stereo unspecified) was tested, and the GTP binding activity (percent of control) was inconclusive: 101%. With CCN1C(=O)/C(=C/c2cnn(CC)c2C)SC1=S the GTP binding activity (percent of control) was inconclusive: 102%. With O=C(c1cccc(OC(F)F)c1)N1CCN(c2ncccn2)CC1 the GTP binding activity (percent of control) was inconclusive: 101%. With COc1cccc(NC(=O)CN(C)C(C)C(=O)Nc2ccc(C(C)=O)cc2)c1 (stereo unspecified) the GTP binding activity (percent of control) was inconclusive: 99%. With Cc1ccc(C2=NN(C3=NN=C(N)Cc4ncnn43)C(O)(C(F)(F)F)C2)cc1 (stereo unspecified) the GTP binding activity (percent of control) was inconclusive: 94%. CCN(CC)S(=O)(=O)c1cc(NC(=O)CCCOc2ccc(C(C)=O)cc2)ccc1C was tested, and the GTP binding activity (percent of control) was inactive: 100%. For CCn1cc(CNC(=O)c2cc(COc3ccc(F)cc3Cl)on2)cn1, the GTP binding activity (percent of control) was inconclusive: 91%. O=C(Nc1ccc2sc3ccccc3c(=O)c2c1)c1ccccc1Cl was tested, and the GTP binding activity (percent of control) was inconclusive: 95%. With CC1(C)CC(CCNS(=O)(=O)c2ccccc2)(c2ccccc2)CCO1 (stereo unspecified) the GTP binding activity (percent of control) was inconclusive: 103%. In the case of C=CCNC(=O)/C(=C\c1ccc(OC)cc1)NC(=O)c1ccc([N+](=O)[O-])cc1, the GTP binding activity (percent of control) is reported as inconclusive: 98%. Cc1ccc(C(=O)Nc2ccc3c(c2)CCC3)o1 was tested, and the GTP binding activity (percent of control) was inconclusive: 103%. For Cc1cc(NC(=O)c2cccs2)ncc1NC(=O)c1cccc(F)c1, the GTP binding activity (percent of control) was inconclusive: 96%. In the case of COC(=O)c1cc(OC)c(OC)cc1NC(=O)Nc1cccc(C(C)=O)c1, the GTP binding activity (percent of control) is reported as inconclusive: 93%. For CSc1nc(N2CCOCC2)c2sccc2n1, the GTP binding activity (percent of control) was inconclusive: 94%. For CCCN1C(=O)/C(=C/c2c(NCCCOCC)nc3c(C)cccn3c2=O)SC1=S, the GTP binding activity (percent of control) was inconclusive: 107%. For Cc1cc(NC(=O)CN2CCN(Cc3ccccc3)CC2)nc2c1c(=O)oc1ccccc12, the GTP binding activity (percent of control) was inconclusive: 96%. In the case of COc1ccc(/C=C/C(=O)Nc2ccc3nc4n(c(=O)c3c2)CCCC4)cc1, the GTP binding activity (percent of control) is reported as inconclusive: 90%. With COc1cc(C(=O)Nc2nc3ccc4nc(C)sc4c3s2)cc(OC)c1OC the GTP binding activity (percent of control) was inconclusive: 97%. COCCN(C(=S)Nc1cc(C)cc(C)c1)C(C)c1ccco1 (stereo unspecified) was tested, and the GTP binding activity (percent of control) was inactive: 106%. In the case of Cc1ccc(S(=O)(=O)N2CCC(C(=O)NNC(=O)c3cccnc3)CC2)cc1, the GTP binding activity (percent of control) is reported as inactive: 109%.
